Reference: PubChem BioAssay
This list was built around the results that the source calls inconclusive (neither active nor inactive); the mix of calls is not that of the screen. Calls of active or inactive are those of the source.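 The calls were made as follows, unless noted: active = thallium flux slope above the same plate's solvent-only control mean plus 3 SD; inconclusive = the two replicate wells disagree; inactive = no significant difference from solvent-only control wells.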

Chains of the proteins cited; added tags and fusions are not shown. Lines headed by an entry give the natural chain unless they say otherwise; changes in a name come on top.
UniProt Q9H2X9: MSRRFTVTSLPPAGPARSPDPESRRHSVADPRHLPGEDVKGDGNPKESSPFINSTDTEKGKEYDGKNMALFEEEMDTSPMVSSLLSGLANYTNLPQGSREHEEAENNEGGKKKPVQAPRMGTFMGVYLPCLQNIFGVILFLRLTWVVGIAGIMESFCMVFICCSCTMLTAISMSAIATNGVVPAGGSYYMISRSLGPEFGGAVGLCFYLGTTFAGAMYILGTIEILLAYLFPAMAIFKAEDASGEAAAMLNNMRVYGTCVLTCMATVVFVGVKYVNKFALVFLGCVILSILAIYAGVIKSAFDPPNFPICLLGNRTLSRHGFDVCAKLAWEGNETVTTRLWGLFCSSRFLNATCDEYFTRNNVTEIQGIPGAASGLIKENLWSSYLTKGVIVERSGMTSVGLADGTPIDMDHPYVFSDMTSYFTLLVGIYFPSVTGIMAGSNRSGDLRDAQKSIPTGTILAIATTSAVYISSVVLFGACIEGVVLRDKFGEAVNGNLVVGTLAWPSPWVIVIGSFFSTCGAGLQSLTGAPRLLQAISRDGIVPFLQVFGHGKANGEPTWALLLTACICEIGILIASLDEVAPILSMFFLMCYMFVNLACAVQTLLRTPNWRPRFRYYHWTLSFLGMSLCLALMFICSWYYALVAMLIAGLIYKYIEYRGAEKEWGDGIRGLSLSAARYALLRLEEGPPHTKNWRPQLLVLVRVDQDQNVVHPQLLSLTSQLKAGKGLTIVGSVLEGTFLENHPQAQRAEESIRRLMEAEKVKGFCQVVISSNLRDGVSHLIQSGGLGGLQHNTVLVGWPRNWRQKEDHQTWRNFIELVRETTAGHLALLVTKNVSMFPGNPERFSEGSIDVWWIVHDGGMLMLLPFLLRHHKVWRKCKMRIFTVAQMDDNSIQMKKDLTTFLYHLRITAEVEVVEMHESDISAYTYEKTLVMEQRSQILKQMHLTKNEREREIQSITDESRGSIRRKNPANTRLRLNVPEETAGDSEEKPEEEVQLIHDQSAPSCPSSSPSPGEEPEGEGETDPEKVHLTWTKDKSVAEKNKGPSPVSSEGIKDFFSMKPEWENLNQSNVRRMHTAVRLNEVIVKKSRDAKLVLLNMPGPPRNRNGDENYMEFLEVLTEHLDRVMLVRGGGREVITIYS

Legend:
[1] = target: Solute carrier family 12 member 5 (Homo sapiens) (UniProt Q9H2X9); experiment: retest of KCC2 transport modulators without sodium – cell-based, HEK293 KCC2, thallium flux, secondary assay, confirmation (AID 1713); conditions: FluoZin2 fluorescence, at 10 µM, hits give high values
Outline: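 System: HEK/KCC2 cells | Compound: 10 µM single dose, 0.1% DMSO | Repeats: Two replicates | Benchmarks: Bumetanide 2 mM positive, DMSO negative | Times: Dye loading 48 min | Signal: FluoZin2 fluorescence, 480/540 nm, 1 Hz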

[2] = FluoZin2 fluorescence counter-screen of MLSMR hits on KCC2-expressing cells (AID 1714;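 active = thallium entry rate above the same plate's blocked-transporter control wells by more than 3 SD; inconclusive = the two repeat wells disagree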;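 also: raw slope of fluorescence over initial fluorescence between 10 and 20 s after thallium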); conditions: HEK293-KCC2 + bumetanide/ouabain, at 10 µM, hits give high values
Outline: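 Test system: KCC2-expressing HEK cells; Reagent: thallium stimulus; Dosing: single compound dose, 10 µM final, 0.1% DMSO; Schedule: overnight culture 37 °C, dye loading 48 min; Detection: FluoZin2 thallium-flux fluorescence; Read-out basis: baseline-normalized fluorescence (F/F0) slope, 10–20 s post thallium.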

[3] = target: Solute carrier family 12 member 5 (Homo sapiens) (UniProt Q9H2X9); experiment: retest of KCC2 transport modulation, ouabain-free – cell-based, HEK293 KCC2, thallium flux, FluoZin2, secondary assay 2, confirmation (AID 1715;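 active = thallium flux slope more than 3 SD above or below the plate's solvent-only control mean, mostly below; inconclusive = the two repeat wells disagreed; inactive = no significant shift from solvent-only controls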;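 also: raw slope with 0.1% DMSO as baseline and bumetanide as block control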); conditions: HEK293-KCC2, thallium flux FluoZin2 fluorescence; at 10 µM; actives lie on both sides; F/F0 rise rate, 10–20 s post-thallium
[4] = compound effects on native HEK Tl+ uptake – HEK cells, counterscreen 1, counter-screen for KCC2 modulator project, confirmation (AID 1716;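 active = thallium flux rate significantly above the same plate's solvent-only control wells, beyond their mean plus 3 SD; inconclusive = the two replicate wells gave conflicting results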); conditions: HEK293 parental cells, thallium flux FluoZin2, ouabain; at 10 µM; baseline-ratio fluorescence slope, 10–20 s after thallium
[5] = target: Solute carrier family 12 member 5 (Homo sapiens) (UniProt Q9H2X9); experiment: modulation of KCC2 thallium flux in HEK cells – cell-based, ouabain, retest, confirmation (AID 1717;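 active = thallium flux slope beyond 3 SD from same-plate DMSO control mean in most replicates, usually higher, sometimes lower; inconclusive = repeat tests gave conflicting results; inactive = no significant difference from controls in most replicates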;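 also: slope of initial-normalized fluorescence between seconds 10 and 20 after thallium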); conditions: HEK293-KCC2, thallium flux FluoZin2 fluorescence, at 10 µM, bidirectional: low = inhibitor, high = activator

c1coc(CNc2nc3nonc3nc2NCc2ccco2)c1
normalised thallium flux (F/F0 slope) [1]: inconclusive: 0.00489

Cc1ccc(Nc2nnc(SCC(=O)c3ccc(Br)s3)s2)c(C)c1
normalised thallium flux (F/F0 slope) [1]: inactive: 0.0101 | normalized thallium flux [2]: inconclusive: 0.00792 | normalized thallium flux [3]: inconclusive: 0.0261

O=C(NCCc1cn2ccccc2n1)c1cc(COc2c(F)cccc2F)on1
normalised thallium flux (F/F0 slope) [1]: inconclusive: 0.0109 | normalized thallium flux [2]: inconclusive: 0.00797 | normalized thallium flux [3]: inconclusive: 0.0287

Cc1nc2ccccc2c2c1C(=O)N(C1CCCCCCC1)C2=O
normalised thallium flux (F/F0 slope) [1]: inactive: 0.0102 | normalized thallium flux [2]: inconclusive: 0.00754

CCOC(=O)c1cccc(C(=O)Nc2nc3ccc(OC)cc3s2)n1
normalised thallium flux (F/F0 slope) [1]: active: 0.0268 | normalized thallium flux [2]: active: 0.0791 | normalized thallium flux [3]: inconclusive: 0.0446

CCCn1nnc(NC(=S)NC(=O)c2ccc(-c3ccc(Br)cc3)o2)n1
normalised thallium flux (F/F0 slope) [1]: inconclusive: 0.012 | normalized thallium flux [2]: active: 0.0152

O=C(NC(=S)Nc1nc(-c2ccccc2)cs1)c1ccco1
normalised thallium flux (F/F0 slope) [1]: inconclusive: 0.0123 | normalized thallium flux [2]: active: 0.0451

O=C(Cn1nnc2c(cnn2-c2ccc(F)cc2)c1=O)Nc1ccccc1C(F)(F)F
normalised thallium flux (F/F0 slope) [1]: inactive: 0.00734 | normalized thallium flux [2]: inconclusive: 0.00661

CC1Cc2cc(/C=C3/SC(=S)NC3=O)ccc2O1 (centres undefined)
normalised thallium flux (F/F0 slope) [1]: inconclusive: 0.00796 | normalized thallium flux [2]: active: 0.115 | normalized thallium flux [3]: active: 0.0502

Cc1noc(C)c1S(=O)(=O)Nc1ccc(C(=O)NC2CCCCCC2)cc1
normalised thallium flux (F/F0 slope) [1]: inconclusive: 0.0112 | normalized thallium flux [2]: inactive: 0.00651 | normalized thallium flux [3]: inactive: 0.0318 | thallium flux rate (normalised fluorescence) [4]: inactive: 0.00795

CCOc1ccc(Nc2n[nH]c(=S)s2)cc1
normalised thallium flux (F/F0 slope) [1]: inconclusive: 0.00464 | normalized thallium flux [2]: inactive: 0.00531 | normalized thallium flux [3]: active: 0.0196 | thallium flux rate (normalised fluorescence) [4]: inactive: 0.00832 | raw Tl+ flux slope (below DMSO = inhibition, above = activation) [5]: inconclusive: 0.0144

Cc1ccc(OCc2n[nH]c(=S)n2C2CCCCC2)cc1
normalised thallium flux (F/F0 slope) [1]: inconclusive: 0.00528

O=[N+]([O-])c1ccccc1/C=N/n1c(COc2ccccc2)n[nH]c1=S
normalised thallium flux (F/F0 slope) [1]: inactive: 0.00593 | normalized thallium flux [2]: active: 0.0786

Cc1occc1C(=O)N/N=C/c1ccc(Br)s1
normalised thallium flux (F/F0 slope) [1]: inconclusive: 0.0105 | normalized thallium flux [2]: active: 0.0297

O=C(O)c1ccc(CSc2nnc(COc3ccc(Cl)cc3Cl)o2)cc1
normalised thallium flux (F/F0 slope) [1]: inactive: 0.00611 | normalized thallium flux [2]: inconclusive: 0.0056

Fc1ccccc1COc1ccc(Br)cc1CNCc1ccncc1
normalised thallium flux (F/F0 slope) [1]: inconclusive: 0.00551

O=c1c2ccccc2[nH]c(=S)n1Cc1ccc2c(c1)OCO2
normalised thallium flux (F/F0 slope) [1]: inconclusive: 0.0204 | normalized thallium flux [2]: active: 0.0125

Cn1c(SCc2ccccc2Cl)nc2ccccc21
normalised thallium flux (F/F0 slope) [1]: inconclusive: 0.0043 | normalized thallium flux [2]: inconclusive: 0.00506 | normalized thallium flux [3]: active: 0.0244 | thallium flux rate (normalised fluorescence) [4]: inactive: 0.00715

FC(F)(F)c1ccccc1NC(=S)N/N=C1\CC2CC=CC12 (centres undefined)
normalised thallium flux (F/F0 slope) [1]: inconclusive: 0.0188

Cc1ccc(C(=O)N2CCC(Cc3ccccc3)CC2)cc1[N+](=O)[O-]
normalised thallium flux (F/F0 slope) [1]: inactive: 0.00805 | normalized thallium flux [2]: inconclusive: 0.0042

CCn1c(CSc2nc3ccccc3n2C)nc2ccccc21
normalised thallium flux (F/F0 slope) [1]: inconclusive: 0.00511 | normalized thallium flux [2]: inactive: 0.00376 | normalized thallium flux [3]: active: 0.0221 | thallium flux rate (normalised fluorescence) [4]: inconclusive: 0.00666

COc1ccc(S(=O)(=O)NCCOc2ccccc2)cc1-n1cnnn1
normalised thallium flux (F/F0 slope) [1]: inactive: 0.00777 | normalized thallium flux [2]: inconclusive: 0.00545 | normalized thallium flux [3]: active: 0.0249

CCOC(=S)N/C(=N\S(=O)(=O)c1ccc(C)cc1)c1ccccc1
normalised thallium flux (F/F0 slope) [1]: inconclusive: 0.0121 | normalized thallium flux [2]: active: 0.0146 | normalized thallium flux [3]: inactive: 0.0398 | thallium flux rate (normalised fluorescence) [4]: inconclusive: 0.00765

O=C(c1ccc(COc2ccccc2Br)o1)N1CCN(c2ccccn2)CC1
normalised thallium flux (F/F0 slope) [1]: inconclusive: 0.00502 | normalized thallium flux [2]: inconclusive: 0.00317

O=C(NC(=S)NCc1ccco1)c1ccccc1
normalised thallium flux (F/F0 slope) [1]: inconclusive: 0.0115

O=C(NC(=S)NCCC1=CCCCC1)c1ccc(Br)o1
normalised thallium flux (F/F0 slope) [1]: inconclusive: 0.00918

CCN(C(=S)NC(=O)CCc1ccccc1)c1ccccc1
normalised thallium flux (F/F0 slope) [1]: inconclusive: 0.0108

COCCn1c(-c2ccccc2Cl)nc2c(c(=O)c3ccccc3n2C)c1=O
normalised thallium flux (F/F0 slope) [1]: inconclusive: 0.00456

O=C(Oc1c(-c2ccco2)oc2ccccc2c1=O)c1cccnc1
normalised thallium flux (F/F0 slope) [1]: active: 0.0222

Cc1ccc(C(=O)CSc2nnc(COc3cccc4cccnc34)o2)cc1
normalised thallium flux (F/F0 slope) [1]: inconclusive: 0.0185 | normalized thallium flux [2]: inconclusive: 0.00527 | normalized thallium flux [3]: inconclusive: 0.026 | thallium flux rate (normalised fluorescence) [4]: inactive: 0.00694

CN(CC(=O)N1CC(=O)N(CCc2ccccc2)C(=O)C1)S(=O)(=O)c1cccc2nsnc12
normalised thallium flux (F/F0 slope) [1]: inactive: 0.00581 | normalized thallium flux [2]: active: 0.00562 | normalized thallium flux [3]: inconclusive: 0.026 | thallium flux rate (normalised fluorescence) [4]: inactive: 0.00849 | raw Tl+ flux slope (below DMSO = inhibition, above = activation) [5]: inconclusive: 0.0163
